Our source for the binding values is article PMC4709261, “Guanylate cyclase 1 relies on rhodopsin for intracellular stability and ciliary trafficking” (eLife, 2015).

Protein sequences, listed by entry. Tags and fused reporters are not part of them. Residues count along the entry.
UniProt P52785, residues 55-1108: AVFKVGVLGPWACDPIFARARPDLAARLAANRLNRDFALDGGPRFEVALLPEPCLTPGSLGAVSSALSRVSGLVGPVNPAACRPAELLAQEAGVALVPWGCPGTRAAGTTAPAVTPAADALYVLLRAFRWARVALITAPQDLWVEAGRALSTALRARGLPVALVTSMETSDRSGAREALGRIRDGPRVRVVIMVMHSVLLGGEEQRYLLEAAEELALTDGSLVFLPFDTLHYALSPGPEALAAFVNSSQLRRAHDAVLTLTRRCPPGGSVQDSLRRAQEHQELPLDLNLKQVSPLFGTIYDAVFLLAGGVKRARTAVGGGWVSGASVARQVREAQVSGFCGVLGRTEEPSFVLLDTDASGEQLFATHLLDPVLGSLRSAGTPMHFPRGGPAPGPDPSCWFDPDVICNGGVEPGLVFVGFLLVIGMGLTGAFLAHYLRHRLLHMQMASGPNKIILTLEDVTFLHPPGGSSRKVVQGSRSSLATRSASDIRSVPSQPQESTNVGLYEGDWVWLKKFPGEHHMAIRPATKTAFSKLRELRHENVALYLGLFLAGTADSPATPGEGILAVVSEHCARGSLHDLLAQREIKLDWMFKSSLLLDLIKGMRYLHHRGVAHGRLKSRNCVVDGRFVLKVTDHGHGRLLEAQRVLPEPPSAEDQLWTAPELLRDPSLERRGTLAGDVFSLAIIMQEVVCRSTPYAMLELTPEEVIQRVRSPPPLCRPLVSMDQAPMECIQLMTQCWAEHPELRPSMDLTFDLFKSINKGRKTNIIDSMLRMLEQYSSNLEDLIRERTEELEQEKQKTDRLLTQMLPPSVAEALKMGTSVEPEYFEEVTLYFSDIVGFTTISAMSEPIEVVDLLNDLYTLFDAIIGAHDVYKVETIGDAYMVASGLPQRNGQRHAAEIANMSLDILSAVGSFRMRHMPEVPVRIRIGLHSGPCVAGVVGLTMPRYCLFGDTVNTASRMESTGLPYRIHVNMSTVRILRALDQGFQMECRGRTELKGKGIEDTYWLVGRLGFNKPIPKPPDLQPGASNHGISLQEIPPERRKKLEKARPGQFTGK
UniProt O54946: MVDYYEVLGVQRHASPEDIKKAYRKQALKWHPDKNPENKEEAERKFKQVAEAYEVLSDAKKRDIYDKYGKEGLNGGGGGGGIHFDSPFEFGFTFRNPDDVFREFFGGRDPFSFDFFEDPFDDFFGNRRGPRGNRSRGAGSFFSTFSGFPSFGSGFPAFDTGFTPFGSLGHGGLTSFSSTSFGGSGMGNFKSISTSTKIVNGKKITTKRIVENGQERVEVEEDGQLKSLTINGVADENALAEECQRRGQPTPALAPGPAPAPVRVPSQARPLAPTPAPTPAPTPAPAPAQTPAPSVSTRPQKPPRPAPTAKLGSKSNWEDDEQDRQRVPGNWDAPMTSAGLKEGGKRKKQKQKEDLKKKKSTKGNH

Experiment [1] concerns the target rhodopsin (mouse (endogenous in retina)) (UniProt P15409). Briefly: co-IP; WT (C57BL/6J) mouse retinal membranes solubilized in the mild detergent dodecyl maltoside in PBS; anti-rhodopsin antibody 1D4 overnight at 4°C, protein A/G magnetic beads; eluate analysed by Western blotting; controls: non-immune mouse IgG, 1D4 epitope-blocking peptide (2 mM).
The target of experiment [2] is retinal guanylate cyclase 1 (mouse (endogenous in retina)) (UniProt P52785). The experiment is described as above.
The target in experiment [3] is T1, rhodopsin (mouse (endogenous in retina)), P15409.
T1 chain: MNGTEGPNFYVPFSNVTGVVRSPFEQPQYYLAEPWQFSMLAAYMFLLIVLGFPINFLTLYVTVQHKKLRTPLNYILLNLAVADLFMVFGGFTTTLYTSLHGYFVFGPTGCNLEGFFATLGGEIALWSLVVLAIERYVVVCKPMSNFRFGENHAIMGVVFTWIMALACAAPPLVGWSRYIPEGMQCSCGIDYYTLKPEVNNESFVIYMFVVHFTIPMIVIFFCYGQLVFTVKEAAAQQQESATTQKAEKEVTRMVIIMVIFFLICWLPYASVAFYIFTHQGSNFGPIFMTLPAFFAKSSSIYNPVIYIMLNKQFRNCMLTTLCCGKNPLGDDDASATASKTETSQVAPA
Briefly: co-IP; as a1, but retinal membranes solubilized in Triton X-100 (for GC-1 also at an increased concentration of dodecyl maltoside); anti-rhodopsin antibody 1D4, protein A/G beads; Western blotting. The note with it: remark: other sources report otherwise.

The target in experiment [4] is T1, rhodopsin (mouse (endogenous in …)). Briefly: co-IP; WT (C57BL/6J) mouse retinal membranes solubilized in the mild detergent dodecyl maltoside in PBS; anti-rhodopsin antibody 1D4 overnight at 4°C, protein A/G magnetic beads; eluate analysed by Western blotting; controls: non-immune mouse IgG, 1D4 epitope-blocking peptide (2 mM). The note with it: remark: other sources report otherwise.

No constants are given. Whether binding was seen depends on the method and setting. In cells and extracts the contact can be indirect.

DnaJB6 (from UniProt O54946 1-365): the binding entry in experiment [1] and in experiment [2] was “no binding” in each case.

B1: peripherin, P15499 1-346 (protein)
chain: MALLKVKFDQKKRVKLAQGLWLMNWLSVLAGIVLFSLGLFLKIELRKRSEVMNNSESHFVPNSLIGVGVLSCVFNSLAGKICYDALDPAKYAKWKPWLKPYLAVCIFFNVILFLVALCCFLLRGSLESTLAYGLKNGMKYYRDTDTPGRCFMKKTIDMLQIEFKCCGNNGFRDWFEIQWISNRYLDFSSKEVKDRIKSNVDGRYLVDGVPFSCCNPSSPRPCIQYQLTNNSAHYSYDHQTEELNLWLRGCRAALLNYYSSLMNSMGVVTLLVWLFEVSITAGLRYLHTALESVSNPEDPECESEGWLLEKSVPETWKAFLESFKKLGKSNQVEAEGADAGPAPEAG
In the case of B1, the binding entry in experiment [3] and in experiment [4] was “no binding” in each case.
